Here are results for three molecules from PMC10795994.

The target in assay [1] is T1, Lsd2-FTP (S. pombe) (UniProt Q10135).
T1 sequence: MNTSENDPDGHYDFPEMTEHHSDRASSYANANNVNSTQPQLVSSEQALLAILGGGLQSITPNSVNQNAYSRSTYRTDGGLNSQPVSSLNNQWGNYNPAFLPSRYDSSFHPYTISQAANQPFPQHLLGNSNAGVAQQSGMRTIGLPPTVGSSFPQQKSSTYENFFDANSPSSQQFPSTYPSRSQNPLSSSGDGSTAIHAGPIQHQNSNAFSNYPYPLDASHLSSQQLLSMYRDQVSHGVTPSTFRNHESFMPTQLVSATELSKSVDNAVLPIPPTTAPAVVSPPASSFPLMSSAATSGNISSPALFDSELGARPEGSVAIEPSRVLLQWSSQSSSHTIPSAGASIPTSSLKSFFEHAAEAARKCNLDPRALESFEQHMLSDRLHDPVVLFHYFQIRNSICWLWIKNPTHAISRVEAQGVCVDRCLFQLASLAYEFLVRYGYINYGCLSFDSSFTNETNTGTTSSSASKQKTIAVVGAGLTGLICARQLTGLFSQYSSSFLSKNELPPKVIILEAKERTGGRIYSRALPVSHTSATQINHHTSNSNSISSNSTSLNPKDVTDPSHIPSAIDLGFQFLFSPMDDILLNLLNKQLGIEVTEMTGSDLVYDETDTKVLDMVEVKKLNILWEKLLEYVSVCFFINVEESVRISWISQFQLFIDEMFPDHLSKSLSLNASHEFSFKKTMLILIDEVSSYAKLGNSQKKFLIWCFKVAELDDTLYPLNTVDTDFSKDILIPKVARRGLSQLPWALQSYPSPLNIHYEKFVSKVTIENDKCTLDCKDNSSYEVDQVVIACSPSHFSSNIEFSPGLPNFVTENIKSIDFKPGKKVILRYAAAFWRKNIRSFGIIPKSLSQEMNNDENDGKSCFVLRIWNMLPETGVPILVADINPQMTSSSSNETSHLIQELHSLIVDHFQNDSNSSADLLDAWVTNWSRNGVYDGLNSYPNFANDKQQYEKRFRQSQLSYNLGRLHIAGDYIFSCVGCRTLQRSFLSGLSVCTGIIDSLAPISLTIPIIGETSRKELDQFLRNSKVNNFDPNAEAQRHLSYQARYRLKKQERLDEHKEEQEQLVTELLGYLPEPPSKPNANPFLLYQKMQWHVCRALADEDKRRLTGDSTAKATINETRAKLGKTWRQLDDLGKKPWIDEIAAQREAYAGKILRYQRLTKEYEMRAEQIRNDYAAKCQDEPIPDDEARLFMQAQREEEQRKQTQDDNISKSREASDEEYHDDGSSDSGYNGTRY
Description: co-IP; FTP-tagged Lsd1 or Lsd2 precipitated from S. pombe whole cell extract with IgG Sepharose beads, 4-6 hours at 4°C; western blot with PAP, anti-myc or anti-HA.

For assay [2], the target named is T2, Lsd1-FTP (S. pombe) (UniProt Q9Y802).
T2 sequence: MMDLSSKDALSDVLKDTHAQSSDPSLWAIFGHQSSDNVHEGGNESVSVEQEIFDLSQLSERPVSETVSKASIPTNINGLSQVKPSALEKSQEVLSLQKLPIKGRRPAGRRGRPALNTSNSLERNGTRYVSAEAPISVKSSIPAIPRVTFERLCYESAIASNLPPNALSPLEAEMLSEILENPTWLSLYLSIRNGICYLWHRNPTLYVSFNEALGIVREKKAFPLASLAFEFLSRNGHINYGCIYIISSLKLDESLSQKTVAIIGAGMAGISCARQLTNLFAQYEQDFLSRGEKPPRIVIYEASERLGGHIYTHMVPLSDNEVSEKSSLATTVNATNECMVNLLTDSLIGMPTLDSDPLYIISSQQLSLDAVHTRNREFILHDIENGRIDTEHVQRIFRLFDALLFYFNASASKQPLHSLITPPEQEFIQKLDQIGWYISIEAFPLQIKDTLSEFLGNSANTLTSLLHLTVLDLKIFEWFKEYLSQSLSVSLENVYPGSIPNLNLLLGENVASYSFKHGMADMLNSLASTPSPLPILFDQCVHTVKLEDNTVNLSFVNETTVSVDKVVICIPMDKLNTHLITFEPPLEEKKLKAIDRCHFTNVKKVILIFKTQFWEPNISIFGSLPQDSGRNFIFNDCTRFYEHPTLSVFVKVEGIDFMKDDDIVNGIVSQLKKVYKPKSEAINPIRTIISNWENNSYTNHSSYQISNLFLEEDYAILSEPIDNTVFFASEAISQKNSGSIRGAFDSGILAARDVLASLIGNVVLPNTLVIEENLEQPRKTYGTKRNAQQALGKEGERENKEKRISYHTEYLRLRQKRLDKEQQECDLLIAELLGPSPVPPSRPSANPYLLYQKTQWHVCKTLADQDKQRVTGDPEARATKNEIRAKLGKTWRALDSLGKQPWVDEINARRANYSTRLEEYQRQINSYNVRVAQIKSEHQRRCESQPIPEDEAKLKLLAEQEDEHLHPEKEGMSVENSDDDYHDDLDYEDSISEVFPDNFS
Described as above.

Assay [3] has as its target T3, Lsd1 (yeast two-hybrid fusion) (S. pombe) (UniProt Q9Y802).
T3 sequence: T2 sequence
The assay is described as follows: two-hybrid; Matchmaker Gold system; bait fused to Gal4-BD (pGBKT7, Y2H Gold cells), prey fused to Gal4-AD (pGADT7, Y187 cells), mated; reporters ADE2 (-Ade -Leu -Trp) and MEL1 (-Leu -Trp +X-α-gal).

No constants are given. Whether binding was seen depends on the method and setting. For some assays here: In cells and extracts the contact can be indirect. Some binding calls cover weakened binding; strength is not graded here. Where a sequence is shown, tags or fusion partners need not be part of it.

B1: Raf2-myc (protein, UniProt O74560 1-636)
chain: MPPVRAEKKRKTDLIEQVCVTNKAGELVDLEDVLEYGPYSLTGILSSEKDEQEPLFDESIVLGYSIKISPVWTYNLKDVPEKETMSIWIVTPQRRYGILSPSSEYKAIYEQISEKNRLFYLIKTKFKDDMISGTLEDYDNYIEVLKEKLELPSCFQAILLVQKHIRFLLTQMVATSSLHVWSESPFFIRIRSSYEHLILQINKNIYNARQERKKSKLSSNNPSDNNTTMKSSLNQALTLINLPEQPFSISSPTATPQLGVVKRTSPLRFPLNDIWLSGLRIVDPNIESISLWKRIQVSTSPKHQRYISLQEVCSVIAQQLQITNLEALNKLSSHGETLLQIMHTAFTWRGTKLFNDIKHAIGFRSSVQQARSQFRGYCYDYLFMHCNNGEKTSLHLLRTLICMKLDFSNAQLAAKILFHFLLFDIGSGLSGSDYTYEQYINHSAVAFSFTEEIFEKNFVTVLPDFVKLFSISFGYWPAFSFYDELLKLLRNKYPKVYSSTPNLCDQVWLDRTNLFPCNRSTRSTLPYRPTKLLDLASASSCLSKKETDFKQDTGLYSYNLEKVEALKVSPDLQTGIWSCPVQNCLYFAVCDNPYKPSQVIYDHLLGHVDSKFIFKTPSNSVRSFTNKLEHIMYNIN
In the case of B1, the binding entry in assay [1] and in assay [2] was “binds” in each case.

B2: Phf2 (yeast two-hybrid fusion) (protein, UniProt Q09908 1-538)
chain: MPNSSYYDDDGGSFEAASYPFQFDGSRRFPNDLHPTMFEGEESNQNGGSVLIDQAFQDIQNPNVNSNMHLENQFQHFHEPNKESGAFGSYKNDDVAKEIESSKNQETDAKSEQAPFTEDASSSNYAHHRSADSQTKSALPPNVPASSSPLPPMSIAMNIARKRSWPASLAIERDNTADALFSTEDGREEQFNLEGVKTKSGRKVHRPNHFDPLVKLPTRRRGPGRRPVVALAMKCSVCQRLQSPPKNRIVFCDGCNTPFHQLCHEPYISDELLDSPNGEWFCDDCIRRKKQAPLVTGTTARELNLSSEEKKSYLLSLPISQLVDILLFCEQLHPDIPFYSPKTSTIVQELQSKRSAFTATMNEPVTGDQYLSLNNGTESQSKTTKHSTSLPSTEPVEVDKQYMESEKIPTIDEYLQEYSNEDEIVLQVLESFPAAVSFSTITNTIQAKYSNRKIKNSNITRSLNRLVRKNRVLRDARGSSYELNRTFDADRPSVRPDISITGPIPIDWMLYTPHTEDLTENFCTYYMFDETPIVLSSI
Regarding B2, in assay [3], the binding entry was “binds”.

B3: Swd2-GFP-HA (protein, UniProt O60137 1-357)
chain: MTTVSITFDLLSSMQPRKWLKNQNFVGEITSLSFDDSGELCLASCTDDTLQLYNCISGKFVKSLASKKYGAHLGRFTHHSNSLIHASTKEDNTVRYLDVVTNRYLRYFPGHKQTVTSIDVSPADETFLSASLDNTIRLWDLRSPNCQGLLNVSSPVVAAFDATGLIFASVSERKYKISLYNIKSFDARPFQDIPLTFLPPHVRIANVEFSTDGKYLLLTTGNDFHYVIDAYSGSELLRVPSKVSTKTQDGNLTYYASACMSPDSKFLFTSYDNEHLCMYQLPELKQTVNSDHIVNSFTEMGLASTTPTSNSHSTENPLAIIPSSTSKNLLPETPSIVRFNPRFSQLVTAHSGVIFWT
In the case of B3, the binding entry in assay [1] and in assay [2] was “binds” throughout.
